Experimental data published in patent US8962623B2, “Aminopyrazine compounds” (Locus Pharmaceuticals, Inc., priority 2011, dated 2015).
Structures were worked out from names or drawings and are uncertain.

Sequences of proteins named here, by UniProt entry; tags and fusion partners are left off.
UniProt Q08881, whole entry: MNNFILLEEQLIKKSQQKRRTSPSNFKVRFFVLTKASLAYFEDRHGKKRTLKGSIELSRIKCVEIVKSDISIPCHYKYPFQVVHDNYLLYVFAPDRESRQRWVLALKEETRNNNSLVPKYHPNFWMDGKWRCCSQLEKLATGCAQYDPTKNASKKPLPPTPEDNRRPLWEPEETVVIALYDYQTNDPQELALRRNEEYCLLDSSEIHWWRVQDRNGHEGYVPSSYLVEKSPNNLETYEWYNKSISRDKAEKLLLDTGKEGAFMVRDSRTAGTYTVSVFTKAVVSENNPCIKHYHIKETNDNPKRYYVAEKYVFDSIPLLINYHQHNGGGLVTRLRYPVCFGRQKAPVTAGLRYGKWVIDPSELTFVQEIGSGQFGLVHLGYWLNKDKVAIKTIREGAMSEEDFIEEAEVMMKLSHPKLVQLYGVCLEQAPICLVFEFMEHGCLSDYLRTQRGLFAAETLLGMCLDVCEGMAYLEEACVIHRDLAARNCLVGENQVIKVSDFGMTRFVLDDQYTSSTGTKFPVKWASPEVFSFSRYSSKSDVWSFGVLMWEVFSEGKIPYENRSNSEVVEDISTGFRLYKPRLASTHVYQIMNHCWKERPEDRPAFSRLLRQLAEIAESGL

Target: Itk (Homo sapiens, UniProt Q08881)
Test: Itk in vitro inhibitory activity in radioassay (33P incorporation into Phospholipase C-γ-1)
Conditions: read-out: IC50 over Itk, 20 μM ATP solution
Description: The Itk protein kinase activity (Invitrogen) was determined by measuring the incorporation of ^33P from γ-[^33P] ATP into the Phospholipase C-γ-1 substrate (Calbiochem). The dilution series of the compound of the present invention were dissolved in DMSO. The diluted solution (1 μl) of the compounds of the present invention in DMSO was added to a 96-well assay plate. Additionally, Itk kinase solution (39 μL) composed of 3.2 nM Itk (Invitrogen) in reaction buffer (12.5 mM Tris (pH 7.5), 0.01% Triton X-100, 5% glycerol, 10 mM MgCl2, 1 mM EGTA, 5 mM glycerol 2-phosphate, 2 mM DTT and 0.5 mM sodium orthovanadate) was added to the assay plates. The solution was pre-incubated for 20 minutes at 30° C. with shaking. Then ATP/substrate solution (10 μl) composed of […] Phospholipase C-γ-1 (Calbiochem), 1.5% v/v γ-^33P-ATP (PerkinElmer), 20 μM ATP and reaction buffer was added. After incubating at 30° C. with shaking for 70 minutes, the reaction was stopped by adding 10 μl of 0.6 M phosphoric acid to each well. The each reaction from the assay plate was transferred and captured on a phosphocellulose 96-well plate (Millipore MAPHNOB). The reaction mixture was analyzed on the PerkinElmer TopCount NXT HTS 96-well Liquid Scintillation counter.
Inhibition rate (%) of the compound was calculated with the following formula: Inhibition rate(%)={1−(Bx−B100)/(B0−B100)}×100 […]

- IC50: 3 nM
Compound: Cc1c(C(=O)Nc2ccc(-c3cc(-c4cccc(-c5cc[nH]n5)c4)cnc3N)cc2)c(=O)n(-c2cccc(Cl)c2)n1C
